Assay results: patent US7947307B2, “Methods and compositions for imaging” (Mount Sinai School of Medicine of New York University, priority 2004, dated 2011)
“Also recorded” adds a separate entry of the source. At least one compound was matched to its structure with a doubt left.

Tested on: PPARγ, LXRα and ABCA1 mRNA in laser-captured foam cells
Conditions: mouse, in vivo, 20 mg/kg

## CCc1ccc(CCOc2ccc(CC3SC(=O)NC3=O)cc2)nc1 (stereo not drawn) [pioglitazone]
  ABCA1 mRNA level in foam cells: significantly increased
  LXRα mRNA level in foam cells: significantly increased
  PPARγ mRNA expression in foam cells: readily detectable; also recorded: increased
